No constants are given. Whether binding was seen depends on the method and setting. In cells and extracts the contact can be indirect. Here binding means that the protein was enriched with, or labelled near, the bait; the list need not be complete.

By UniProt entry, the sequences of proteins in these tests, tags left out.
UniProt P38159: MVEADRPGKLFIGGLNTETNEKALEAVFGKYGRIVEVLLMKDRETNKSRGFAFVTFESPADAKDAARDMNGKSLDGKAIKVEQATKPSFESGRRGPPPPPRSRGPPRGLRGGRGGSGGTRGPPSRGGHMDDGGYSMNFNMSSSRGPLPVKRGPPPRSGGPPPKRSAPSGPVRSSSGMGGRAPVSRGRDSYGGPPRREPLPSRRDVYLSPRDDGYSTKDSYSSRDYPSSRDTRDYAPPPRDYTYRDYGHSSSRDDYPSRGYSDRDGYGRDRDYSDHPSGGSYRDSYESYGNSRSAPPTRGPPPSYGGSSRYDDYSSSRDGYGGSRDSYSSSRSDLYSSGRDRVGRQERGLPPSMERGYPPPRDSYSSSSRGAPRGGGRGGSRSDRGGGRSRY
UniProt Q96E39: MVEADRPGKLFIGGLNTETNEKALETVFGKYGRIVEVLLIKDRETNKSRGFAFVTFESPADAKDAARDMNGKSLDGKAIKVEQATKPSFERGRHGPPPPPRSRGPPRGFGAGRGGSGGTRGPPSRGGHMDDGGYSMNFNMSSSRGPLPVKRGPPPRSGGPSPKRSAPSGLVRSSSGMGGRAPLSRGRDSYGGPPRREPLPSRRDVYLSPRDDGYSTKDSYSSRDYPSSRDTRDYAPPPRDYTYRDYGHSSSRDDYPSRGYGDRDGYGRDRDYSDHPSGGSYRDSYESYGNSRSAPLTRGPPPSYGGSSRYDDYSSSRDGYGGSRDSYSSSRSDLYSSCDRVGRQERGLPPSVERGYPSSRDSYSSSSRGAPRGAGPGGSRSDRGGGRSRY

The target in assay [1] is HA-tagged wild-type human RBMX (human) (UniProt P38159). Nature of the assay: affinity purification with mass spectrometry.
The target in assay [2] is HA-tagged wild-type human RBMXL1 (human) (UniProt Q96E39). Nature of the assay: affinity purification with mass spectrometry.

B1: HNRNPDL (protein, UniProt O14979 1-420)
chain: MEVPPRLSHVPPPLFPSAPATLASRSLSHWRPRPPRQLAPLLPSLAPSSARQGARRAQRHVTAQQPSRLAGGAAIKGGRRRRPDLFRRHFKSSSIQRSAAAAAATRTARQHPPADSSVTMEDMNEYSNIEEFAEGSKINASKNQQDDGKMFIGGLSWDTSKKDLTEYLSRFGEVVDCTIKTDPVTGRSRGFGFVLFKDAASVDKVLELKEHKLDGKLIDPKRAKALKGKEPPKKVFVGGLSPDTSEEQIKEYFGAFGEIENIELPMDTKTNERRGFCFITYTDEEPVKKLLESRYHQIGSGKCEIKVAQPKEVYRQQQQQQKGGRGAAAGGRGGTRGRGRGQGQNWNQGFNNYYDQGYGNYNSAYGGDQNYSGYGGYDYTGYNYGNYGYGQGYADYSGQQSTYGKASRGGGNHQNNYQPY
For B1, the binding entry in assay [1] and in assay [2] was “binds” each time.

B2: TRA2B (protein, UniProt P62995 1-288)
chain: MSDSGEQNYGERESRSASRSGSAHGSGKSARHTPARSRSKEDSRRSRSKSRSRSESRSRSRRSSRRHYTRSRSRSRSHRRSRSRSYSRDYRRRHSHSHSPMSTRRRHVGNRANPDPNCCLGVFGLSLYTTERDLREVFSKYGPIADVSIVYDQQSRRSRGFAFVYFENVDDAKEAKERANGMELDGRRIRVDFSITKRPHTPTPGIYMGRPTYGSSRRRDYYDRGYDRGYDDRDYYSRSYRGGGGGGGGWRAAQDRDQIYRRRSPSPYYSRGGYRSRSRSRSYSPRRY
For the molecule B2, the binding entry in assay [2] is listed as “binds”.

B3: SRSF7 (protein, UniProt Q16629 1-238)
chain: MSRYGRYGGETKVYVGNLGTGAGKGELERAFSYYGPLRTVWIARNPPGFAFVEFEDPRDAEDAVRGLDGKVICGSRVRVELSTGMPRRSRFDRPPARRPFDPNDRCYECGEKGHYAYDCHRYSRRRRSRSRSRSHSRSRGRRYSRSRSRSRGRRSRSASPRRSRSISLRRSRSASLRRSRSGSIKGSRYFQSPSRSRSRSRSISRPRSSRSKSRSPSPKRSRSPSGSPRRSASPERMD
B3: the binding entry in assay [2] was “binds”.

B4: MATR3 (protein, UniProt P43243 1-847)
chain: MSKSFQQSSLSRDSQGHGRDLSAAGIGLLAAATQSLSMPASLGRMNQGTARLASLMNLGMSSSLNQQGAHSALSSASTSSHNLQSIFNIGSRGPLPLSSQHRGDADQASNILASFGLSARDLDELSRYPEDKITPENLPQILLQLKRRRTEEGPTLSYGRDGRSATREPPYRVPRDDWEEKRHFRRDSFDDRGPSLNPVLDYDHGSRSQESGYYDRMDYEDDRLRDGERCRDDSFFGETSHNYHKFDSEYERMGRGPGPLQERSLFEKKRGAPPSSNIEDFHGLLPKGYPHLCSICDLPVHSNKEWSQHINGASHSRRCQLLLEIYPEWNPDNDTGHTMGDPFMLQQSTNPAPGILGPPPPSFHLGGPAVGPRGNLGAGNGNLQGPRHMQKGRVETSRVVHIMDFQRGKNLRYQLLQLVEPFGVISNHLILNKINEAFIEMATTEDAQAAVDYYTTTPALVFGKPVRVHLSQKYKRIKKPEGKPDQKFDQKQELGRVIHLSNLPHSGYSDSAVLKLAEPYGKIKNYILMRMKSQAFIEMETREDAMAMVDHCLKKALWFQGRCVKVDLSEKYKKLVLRIPNRGIDLLKKDKSRKRSYSPDGKESPSDKKSKTDGSQKTESSTEGKEQEEKSGEDGEKDTKDDQTEQEPNMLLESEDELLVDEEEAAALLESGSSVGDETDLANLGDVASDGKKEPSDKAVKKDGSASAAAKKKLKKVDKIEELDQENEAALENGIKNEENTEPGAESSENADDPNKDTSENADGQSDENKDDYTIPDEYRIGPYQPNVPVGIDYVIPKTGFYCKLCSLFYTNEEVAKNTHCSSLPHYQKLKKFLNKLAEERRQKKET
B4: the binding result in assay [2] is given as “binds”.

Source of the values: paper doi:10.1101/2025.10.17.25337589.
